Results are given in words; binding and its absence hold for the method and conditions named. Some binding calls cover weakened binding; strength is not graded here.
Legend:
[1] = target: T1, zebrafish aplnra (zebrafish) (UniProt Q7SZP9); assay: AP-ELA cell-surface binding to transfected 293T cells (FIG. 7G)
T1 sequence (looked up): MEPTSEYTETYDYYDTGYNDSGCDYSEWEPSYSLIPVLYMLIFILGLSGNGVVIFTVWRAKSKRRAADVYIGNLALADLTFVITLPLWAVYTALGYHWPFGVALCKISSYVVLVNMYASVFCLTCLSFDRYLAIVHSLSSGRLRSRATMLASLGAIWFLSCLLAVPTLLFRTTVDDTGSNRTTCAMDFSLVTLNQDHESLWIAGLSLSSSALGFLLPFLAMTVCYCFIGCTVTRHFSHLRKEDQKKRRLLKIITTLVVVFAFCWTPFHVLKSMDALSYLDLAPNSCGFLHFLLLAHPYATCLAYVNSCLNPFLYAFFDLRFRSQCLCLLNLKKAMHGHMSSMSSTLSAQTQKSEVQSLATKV

Sequences of proteins named here, by UniProt entry; tags and fusion partners are left off.
UniProt P61073: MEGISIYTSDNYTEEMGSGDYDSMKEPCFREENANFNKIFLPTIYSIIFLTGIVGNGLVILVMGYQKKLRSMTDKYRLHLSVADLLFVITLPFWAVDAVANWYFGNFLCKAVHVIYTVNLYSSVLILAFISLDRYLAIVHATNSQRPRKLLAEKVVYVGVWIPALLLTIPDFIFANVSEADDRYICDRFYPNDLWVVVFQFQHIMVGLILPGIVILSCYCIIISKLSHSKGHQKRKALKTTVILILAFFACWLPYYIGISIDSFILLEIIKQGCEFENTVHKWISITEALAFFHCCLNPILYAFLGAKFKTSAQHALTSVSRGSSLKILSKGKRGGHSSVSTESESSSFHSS

CXCR4 [2] = target: CXCR4 (UniProt P61073); assay: ELA-AP conditioned medium on 293T cells transfected with receptor ORFs, OD at 495 nm
[3] = target: T1, zebrafish aplnra (zebrafish); assay: AP-ELA cell-surface binding to transfected HEK293T cells
CXCR4 [4] = target: CXCR4 (UniProt P61073); assay: ELA-AP conditioned medium on 293T cells transfected with receptor ORFs (FIG. 20A)

Measured: binding

B1: recombinant ELA conjugated to Alkaline-Phosphatase (AP-ELA) (peptide, not shown: large carriers)
chain: QRPVNLTMRRKLRKHNCLQRRCMPLHSRVPFP
binds: all assays above
